Laboratory results: PubChem BioAssay AID1508597 (Cure First, 2020)
Test: 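Survival screen with siRNA in ovarian cancer cells derived from patients, with or without rucaparib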 (primary screen). Cell system: human ovarian carcinoma lines grown from tumours: OCI-P5x (papillary serous) and OCI-C5x (clear cell). Knock-down reagent: siRNA pool against human genes, 1.25 pmol siRNA per well. Time to read-out: 72 h or 96 h, depending on the cell culture. Conditions: rucaparib 20 µM (about IC30) or vehicle, present until read-out. Measurement: 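ATP luminescence measured at 72 or 96 h according to the culture, then normalised and expressed as percent viability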. Scale: viability, normalised: higher = more viable cells remaining. Hit rule: 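a well counts as a hit if its normalised viability is under 80 percent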. Calls: active = viability under 80%; inactive = viability 80% or more.
The whole screen tested about 2,100 reagents; this is a random part of them. 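Calls flag viability under 80% in either arm, not effects specific to rucaparib; the reference for percent is not stated.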 Not given: the 100% reference.

no.	gene	rucaparib or vehicle	cell line	technical replicate	viability, normalised (%)	Call
1	MAP3K4	Rucaparib	OCI-C5x (clear cell)	1	54.4	active
2	MAP3K4	Rucaparib	OCI-C5x (clear cell)	2	84.1	inactive
3	MAP3K4	Rucaparib	OCI-C5x (clear cell)	3	60.2	active
4	MAP3K4	Rucaparib	OCI-P5x (serous)	1	90.5	inactive
5	MAP3K4	Rucaparib	OCI-P5x (serous)	2	102	inactive
6	MAP3K4	Rucaparib	OCI-P5x (serous)	3	96.5	inactive
7	MAP3K4	Vehicle	OCI-C5x (clear cell)	1	116	inactive
8	MAP3K4	Vehicle	OCI-C5x (clear cell)	2	68.5	active
9	MAP3K4	Vehicle	OCI-C5x (clear cell)	3	42.7	active
10	MAP3K4	Vehicle	OCI-P5x (serous)	1	87.5	inactive
11	MAP3K4	Vehicle	OCI-P5x (serous)	2	76.1	active
12	MAP3K4	Vehicle	OCI-P5x (serous)	3	67.2	active
13	ASXL1	Rucaparib	OCI-C5x (clear cell)	1	81.8	inactive
14	ASXL1	Rucaparib	OCI-C5x (clear cell)	2	48.5	active
15	ASXL1	Rucaparib	OCI-C5x (clear cell)	3	46.1	active
16	ASXL1	Rucaparib	OCI-P5x (serous)	1	90.3	inactive
17	ASXL1	Rucaparib	OCI-P5x (serous)	2	94.6	inactive
18	ASXL1	Rucaparib	OCI-P5x (serous)	3	73	active
19	ASXL1	Vehicle	OCI-C5x (clear cell)	1	29.3	active
20	ASXL1	Vehicle	OCI-C5x (clear cell)	2	35	active
21	ASXL1	Vehicle	OCI-C5x (clear cell)	3	36.6	active
22	ASXL1	Vehicle	OCI-P5x (serous)	1	70.6	active
23	ASXL1	Vehicle	OCI-P5x (serous)	2	99.3	inactive
24	ASXL1	Vehicle	OCI-P5x (serous)	3	78.7	active
25	NAGK	Rucaparib	OCI-C5x (clear cell)	1	55.4	active
26	NAGK	Rucaparib	OCI-C5x (clear cell)	2	42.3	active
27	NAGK	Rucaparib	OCI-C5x (clear cell)	3	40.4	active
28	NAGK	Rucaparib	OCI-P5x (serous)	1	98.7	inactive
29	NAGK	Rucaparib	OCI-P5x (serous)	2	89.5	inactive
30	NAGK	Rucaparib	OCI-P5x (serous)	3	84.2	inactive
31	NAGK	Vehicle	OCI-C5x (clear cell)	1	53.2	active
32	NAGK	Vehicle	OCI-C5x (clear cell)	2	56.9	active
33	NAGK	Vehicle	OCI-C5x (clear cell)	3	41.2	active
34	NAGK	Vehicle	OCI-P5x (serous)	1	76.5	active
35	NAGK	Vehicle	OCI-P5x (serous)	2	89	inactive
36	NAGK	Vehicle	OCI-P5x (serous)	3	73.2	active
37	MORC1	Rucaparib	OCI-C5x (clear cell)	1	46.1	active
38	MORC1	Rucaparib	OCI-C5x (clear cell)	2	45.4	active
39	MORC1	Rucaparib	OCI-C5x (clear cell)	3	58	active
40	MORC1	Rucaparib	OCI-P5x (serous)	1	49.2	active
41	MORC1	Rucaparib	OCI-P5x (serous)	2	50.5	active
42	MORC1	Rucaparib	OCI-P5x (serous)	3	57.8	active
43	MORC1	Vehicle	OCI-C5x (clear cell)	1	64.5	active
44	MORC1	Vehicle	OCI-C5x (clear cell)	2	66.3	active
45	MORC1	Vehicle	OCI-C5x (clear cell)	3	74.4	active
46	MORC1	Vehicle	OCI-P5x (serous)	1	65.3	active
47	MORC1	Vehicle	OCI-P5x (serous)	2	62	active
48	MORC1	Vehicle	OCI-P5x (serous)	3	70	active
49	PTK2	Rucaparib	OCI-C5x (clear cell)	1	90.6	inactive
50	PTK2	Rucaparib	OCI-C5x (clear cell)	2	101	inactive
51	PTK2	Rucaparib	OCI-C5x (clear cell)	3	86.5	inactive
52	PTK2	Rucaparib	OCI-P5x (serous)	1	156	inactive
53	PTK2	Rucaparib	OCI-P5x (serous)	2	137	inactive
54	PTK2	Rucaparib	OCI-P5x (serous)	3	125	inactive
55	PTK2	Vehicle	OCI-C5x (clear cell)	1	128	inactive
56	PTK2	Vehicle	OCI-C5x (clear cell)	2	104	inactive
57	PTK2	Vehicle	OCI-C5x (clear cell)	3	112	inactive
58	PTK2	Vehicle	OCI-P5x (serous)	1	128	inactive
59	PTK2	Vehicle	OCI-P5x (serous)	2	137	inactive
60	PTK2	Vehicle	OCI-P5x (serous)	3	119	inactive

9 neighbouring entries already listed:
no.	gene	rucaparib or vehicle	cell line	technical replicate	viability, normalised (%)	Call
51	PTK2	Rucaparib	OCI-C5x (clear cell)	3	86.5	inactive
52	PTK2	Rucaparib	OCI-P5x (serous)	1	156	inactive
53	PTK2	Rucaparib	OCI-P5x (serous)	2	137	inactive
54	PTK2	Rucaparib	OCI-P5x (serous)	3	125	inactive
55	PTK2	Vehicle	OCI-C5x (clear cell)	1	128	inactive
56	PTK2	Vehicle	OCI-C5x (clear cell)	2	104	inactive
57	PTK2	Vehicle	OCI-C5x (clear cell)	3	112	inactive
58	PTK2	Vehicle	OCI-P5x (serous)	1	128	inactive
59	PTK2	Vehicle	OCI-P5x (serous)	2	137	inactive
